Assay results taken from US10668108B2, “Compositions and methods of treating liver disease” (Children's Hospital Medical Center, priority 2016, dated 2020).
At least one compound was matched to its structure with a doubt left.

Legend:
HLO [1] = test: HLO stiffness measurement by AFM; assay type: cell-based, human; conditions: Intralipid treated HLO, stiffness assessed at Day3
Procedure: To further determine whether OCA and FGF19 have an impact on fibrosis, HLO stiffness was assessed. Organoid damage induced by Intralipid is extremely significant and treated HLOs for 5 days are not able to be stabilized on a dish, which is a minimal requirement for assessing the rigidity by AFM. To circumvent this limitation, the stiffness was assessed at Day3.
LPS and FFA exposure and OCA and FGF19 treatment. 20-30 hLOHLO, which had been isolated from Matrigel and washed by 1×PBS, were divided into each condition and cultured on an ultra-low attachment 6 multi-well plates (Corning). […]
HLO stiffness measurement by AFM. […] The AFM head with a silicon nitride cantilever (CSC37, k=0.3 N/m, MikroMasch, Bulgaria) was mounted on a fluorescence stereo microscope (M205 FA, Leica, Germany) coupled with a Z-axis piezo stage (JPK CellHesion module, JPK Instruments, Germany), which allows the indentation measurement up to the depth of ˜100 μm. […] The sample dish was then placed onto the AFM stage, and force-distance curves in a 14×14 matrix in a 25×25 μm square were measured from each HLO. Finally, Young's moduli (E, Pa) of HLOs were determined by fitting the obtained force-distance curves with the modified Hertz model (Sneddon, 1965). […]

HLO [2] = test: ROS live-cell imaging with CellROX dye in HLO; assay type: cell-based, human; conditions: 400 μM Intralipid; FGF19 40 ng/ml
Text: Because there are no established ameliorative strategies, and PNALD is the leading indication for liver transplantation in infants (El Kasmi et al., 2013), we further investigated preventive and therapeutic effects of FXR agonist obeticholic acid (OCA) and FGF19 hormone that are activated by OCA, which have shown great potential in nonalcoholic steatohepatitis treatment (Dash et al., 2017; Kumar and Teckman, 2015; Neuschwander-Tetri et al., 2015). To implicate the therapeutic significance of OCA and FGF19 for PNALD like pathology in HLO, OCA and FGF19 were added to 400 μM Intralipid exposed HLO. […] Mechanistically, the accumulation of reactive oxygen species (ROS) is strongly associated with the fatty liver related hepatocyte death (Nandivada et al., 2013; Tsedensodnom and Sadler, 2013). We thus wondered whether OCA and FGF19 would inhibit the production of ROS so we sought to confirm that theory with live-cell imaging with CellROX dye.
Phagocyte, lipids, ROS live-cell imaging. After being cultured in an ultra-low attachment 6 multi-well plate, 5-10 HLO were picked up and seeded in a Microslide 8 Well Glass Bottom plate (Ibidi, WI, USA) and subjected to live-cell staining. […] Nuclear staining was marked by NucBlue Live ReadyProbes Reagent (Thermo Fisher Scientific Inc.). […] The final lipid droplet volume was calculated by IMARIS8 and normalized by each organoid size. […]

CC[C@H]1[C@@H](O)[C@@H]2[C@H](CC[C@]3(C)[C@@H]([C@H](C)CCC(=O)O)CC[C@@H]23)[C@@]2(C)CC[C@@H](O)C[C@@H]12 [OCA, obeticholic acid, reference compound]
progression of fibrosis (HLO stiffness) (HLO [1]): reduce the progression of fibrosis
effect on ROS production caused by 400 μM Int (HLO [2]): inhibit the ROS production
